# Molecular target: T1, Cx50 GJ channels (Mus musculus, UniProt P28236)
# T1 sequence (P28236 1-440): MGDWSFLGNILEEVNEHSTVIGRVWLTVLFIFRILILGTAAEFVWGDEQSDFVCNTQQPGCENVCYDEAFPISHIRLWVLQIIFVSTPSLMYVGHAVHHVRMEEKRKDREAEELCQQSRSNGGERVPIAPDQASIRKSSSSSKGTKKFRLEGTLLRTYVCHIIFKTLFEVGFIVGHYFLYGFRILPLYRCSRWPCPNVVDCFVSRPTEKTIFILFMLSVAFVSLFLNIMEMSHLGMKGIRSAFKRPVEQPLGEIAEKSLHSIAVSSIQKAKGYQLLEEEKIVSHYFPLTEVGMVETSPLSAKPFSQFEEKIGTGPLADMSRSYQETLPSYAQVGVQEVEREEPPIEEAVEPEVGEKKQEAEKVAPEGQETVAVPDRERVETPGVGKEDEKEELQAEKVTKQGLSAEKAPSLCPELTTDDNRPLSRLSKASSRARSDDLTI
# Type: cell-based
structure (smiles),measurement,value
"Clc1ccccc1C(c1ccccc1)(c1ccccc1)n1ccnc1 [Clotrimazole, reference compound]",IC50,5 µM
